Laboratory results from paper PMC10761881.
Results are given in words; binding and its absence hold for the method and conditions named. Binding seen in cells or lysates may run through a third protein. Some binding calls cover weakened binding; strength is not graded here. Tags and fused reporters may be left off the sequences shown.

Chains of the proteins cited; added tags and fusions are not shown.
UniProt Q9W2S2: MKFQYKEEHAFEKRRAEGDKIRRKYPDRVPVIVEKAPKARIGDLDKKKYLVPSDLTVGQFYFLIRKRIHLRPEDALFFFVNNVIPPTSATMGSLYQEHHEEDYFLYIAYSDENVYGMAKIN

T1: GST-Fgop2 (Drosophila) (UniProt Q9VM65)
T1 sequence: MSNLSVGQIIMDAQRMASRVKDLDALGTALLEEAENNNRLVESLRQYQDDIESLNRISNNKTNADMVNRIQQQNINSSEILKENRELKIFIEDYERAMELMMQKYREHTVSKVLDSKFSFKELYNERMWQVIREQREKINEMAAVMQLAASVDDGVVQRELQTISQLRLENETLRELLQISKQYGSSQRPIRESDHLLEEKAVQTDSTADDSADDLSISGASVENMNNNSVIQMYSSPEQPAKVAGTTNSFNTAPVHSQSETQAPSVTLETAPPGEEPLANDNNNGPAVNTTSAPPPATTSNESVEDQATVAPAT


Experiments:
GST-Fgop2 (Drosophila) = biological target: T1, GST-Fgop2 (Drosophila); experiment: pull-down; bacterially purified GST fusion proteins as bait; lysates of S2R+ cells transfected with HA-tagged Tao-1; only the target purified
[1] = biological target: Atg8a (epitope-tagged) (Drosophila) (UniProt Q9W2S2); experiment: co-IP; Drosophila S2R+ cells (S2 cells in the legend of Fig. 4D) transfected with epitope-tagged proteins; treatments in some panels: dsRNA against Slmap, Fgop2 or Cka, co-expression of Tak1 or Tak1 S176A, 5Z-7-Oxozeaenol (2 μM, 3 h), LPS (10 μg/mL, 2 h, after 20-Hydroxyecdysone 1 μM, 48 h)

binding (GST-Fgop2 (Drosophila))	binding [1]	Binder
no binding	–	HA-Tao-1 (protein, UniProt Q0KHQ5 1-1039) MPSARPGSLKDPEIADLFNKHDPEKIFEDLREIGHGSFGAVYYARCNLTREIVAIKKMSYTGKQSQEKWQDILKEIRFLRQLNHPNTIEYKGCYLRESTAWLVMEYCVGSASDIIEVHKKPLHEDEIAAICLGVLSGLSYLHSLGRIHRDIKAGNILLTDNGVVKLADFGSAAIKCPANSFVGTPYWMAPEVILAMDEGQYDGKVDVWSLGITCIELAERKPPYFNMNAMSALYHIAQNESPTLPKNDWSDAFCSFVELCLKKMPAERPSSAKLLTHAYVTRPRSDTVLLELIARTKSAVRELDNLNYRKMKKILMVDTCETESAVGDTDDQQDDHAGGDSSKSNSITSEHSIHSVGVSAASSQSSSSNSIPAAAQNHHHIAAHHHQQAASAAVAAAMHHHHHPHQQPPPSWPSGQQGQPVPPGAVSRNSSRHRNRPPLPNIMHSMNNNVTPTNSASVVPAPAPAPVLPPPISVLPHLSAMGHVGGGGTGTGGSGGGSPASGGPLADRIQPVQPRYLTTPAAQAAVYAASSASSQQAISNAVNDHGPNNFATIRTTSIVTKQQKEHMQEEMHEQMSGYKRMRREHQAHLVKLEEKCKVDMEAHKTALDKEYDTLLHNFTRDLDRLETKHQQDVERRAKQTSAAEKKLHKEITLKQENDRKVYDLNRKKEYKANKERWKRELSMDESTPKRQRDLTLQSQKDNLKQHEAQEEQRMLQAQKQYIELEMRKFKRKRMIMQHEHEDQQLRDELGKKEQQLQQAHAMLLKHHEKTQELEYRQQKSVHQLREEQINKQHDTELHNQKDYMDRIKKELVRKHAVELRQQPKSLKQKELQIRKQFRETCKTQTKQYKRYKAQVLQTTPKEQQKEVIKQLKEEKHRKLTLLGEQYEQSIADMFQSQSYKLDESQVIECQRTHEQLEYELEMLTAYQNKNKKQAQEQRDRERRELENRVSVRRGLLENKMDAELQQFNQERAERLRMKHEKHTKELEAFDNESIALGFSTLSLIEVSREAYADEEGSLSGSMISLAHSNSSTSFPAGSL
–	binds	Tak1 (Transforming growth factor-β-activated kinase 1), epitope-tagged (enzyme, UniProt Q9V3Q6 1-678) MATASLDALQAAYVDFSEITLREKVGHGSYGVVCKAVWRDKLVAVKEFFASAEQKDIEKEVKQLSRVKHPNIIALHGISSYQQATYLIMEFAEGGSLHNFLHGKVKPAYSLAHAMSWARQCAEGLAYLHAMTPKPLIHRDVKPLNLLLTNKGRNLKICDFGTVADKSTMMTNNRGSAAWMAPEVFEGSKYTEKCDIFSWAIVLWEVLSRKQPFKGIDNAYTIQWKIYKGERPPLLTTCPKRIEDLMTACWKTVPEDRPSMQYIVGVMHEIVKDYTGADKALEYTFVNQQIVTKESDGTVAAQPDSLSSQEGELSPSSTQLTPTTAANANVNAIAISKTTTSSMTENTSSTSSDITPTNSGQLDNNPLFYMVTNRWDAIPEEESNESRNDSFNLTSSAEATQRLETIRNGMILMACKPMEQLTLDVEANGFDLSPSESSSSSTNAKSDGRERLTVTDTKPVMMTTDLSNNNGGIHAHSNGLLSHANGWQARDEELQEQEHEQEIVNSLDVDVDPDEDENDGTEQSLAEILDPELQPEPPIPNDAESQLIYRDHRHMAKEYLSVDTNLYYAQDFKDKLIVQMDRTEREQKQELLRKMKDKEGLQSLYNNLQQQYASRQLAAGHHPQPHPHPHPNQLQHPHSHPPMHFLQDEGCGLLPGSVCGGSESVEEGWVVIPPHHNA
